No constants are given. Whether binding was seen depends on the method and setting. For some of these results: Binding can be weak; no strength is given.
Assays:
Assay in all cases: two-hybrid
[1] = target: TLR3 TIR domain (UniProt O15455)
[2] = target: T1, TLR9 TIR domain (UniProt Q9NR96)
T1 sequence: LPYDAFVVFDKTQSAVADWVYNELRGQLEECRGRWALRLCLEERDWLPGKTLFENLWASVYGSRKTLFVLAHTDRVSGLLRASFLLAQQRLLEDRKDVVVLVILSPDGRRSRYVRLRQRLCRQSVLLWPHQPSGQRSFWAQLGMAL

Protein sequences, listed by entry. Tags and fused reporters are not part of them. Residues count along the entry.
UniProt O15455, residues 754-897: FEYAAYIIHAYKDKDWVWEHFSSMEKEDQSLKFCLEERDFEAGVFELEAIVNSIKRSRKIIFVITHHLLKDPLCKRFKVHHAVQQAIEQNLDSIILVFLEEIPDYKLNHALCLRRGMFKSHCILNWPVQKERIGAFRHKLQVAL
UniProt O60603, residues 639-782: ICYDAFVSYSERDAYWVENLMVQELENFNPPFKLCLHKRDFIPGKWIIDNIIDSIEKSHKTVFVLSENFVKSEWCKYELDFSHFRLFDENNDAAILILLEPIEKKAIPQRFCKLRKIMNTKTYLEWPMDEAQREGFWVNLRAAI
UniProt O60602, residues 691-836: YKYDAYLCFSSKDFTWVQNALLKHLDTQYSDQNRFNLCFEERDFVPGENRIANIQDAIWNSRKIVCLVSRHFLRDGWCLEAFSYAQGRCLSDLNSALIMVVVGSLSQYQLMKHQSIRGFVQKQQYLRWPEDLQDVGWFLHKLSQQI
UniProt Q99836: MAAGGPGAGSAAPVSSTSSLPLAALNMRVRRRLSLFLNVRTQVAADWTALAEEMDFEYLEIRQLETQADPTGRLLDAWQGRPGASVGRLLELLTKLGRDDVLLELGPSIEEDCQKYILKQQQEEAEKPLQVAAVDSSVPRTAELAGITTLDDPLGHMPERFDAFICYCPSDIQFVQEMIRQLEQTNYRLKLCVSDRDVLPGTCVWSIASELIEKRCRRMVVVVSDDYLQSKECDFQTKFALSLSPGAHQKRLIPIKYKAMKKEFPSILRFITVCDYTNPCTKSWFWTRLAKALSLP
UniProt P58753: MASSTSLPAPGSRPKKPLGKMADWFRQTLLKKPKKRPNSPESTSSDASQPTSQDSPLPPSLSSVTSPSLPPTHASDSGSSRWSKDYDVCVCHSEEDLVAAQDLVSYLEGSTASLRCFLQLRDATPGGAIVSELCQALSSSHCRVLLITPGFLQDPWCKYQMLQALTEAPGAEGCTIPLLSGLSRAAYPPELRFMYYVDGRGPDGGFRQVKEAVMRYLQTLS
UniProt Q86XR7: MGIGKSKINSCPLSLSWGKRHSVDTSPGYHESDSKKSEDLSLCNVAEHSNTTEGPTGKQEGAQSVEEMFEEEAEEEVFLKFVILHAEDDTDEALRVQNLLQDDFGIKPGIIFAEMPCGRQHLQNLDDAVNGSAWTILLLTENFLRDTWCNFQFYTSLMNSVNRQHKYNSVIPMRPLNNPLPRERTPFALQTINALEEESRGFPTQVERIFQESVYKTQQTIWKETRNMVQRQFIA
UniProt O00206, residues 672-815: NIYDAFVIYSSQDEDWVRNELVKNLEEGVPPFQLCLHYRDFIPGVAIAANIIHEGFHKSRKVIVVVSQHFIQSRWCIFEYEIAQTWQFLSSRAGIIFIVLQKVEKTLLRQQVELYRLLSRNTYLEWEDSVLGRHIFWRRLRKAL

[3] = target: TLR2 TIR domain (UniProt O60603)
[4] = target: T2, TLR10 TIR domain (UniProt Q9BXR5)
T2 sequence: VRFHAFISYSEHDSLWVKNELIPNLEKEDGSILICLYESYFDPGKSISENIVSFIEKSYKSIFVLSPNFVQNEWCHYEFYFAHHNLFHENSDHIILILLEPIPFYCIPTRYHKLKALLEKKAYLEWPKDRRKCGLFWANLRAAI

[5] = target: TLR5 TIR domain (UniProt O60602)
[6] = target: T3, TLR7 TIR domain (UniProt Q9NYK1)
T3 sequence: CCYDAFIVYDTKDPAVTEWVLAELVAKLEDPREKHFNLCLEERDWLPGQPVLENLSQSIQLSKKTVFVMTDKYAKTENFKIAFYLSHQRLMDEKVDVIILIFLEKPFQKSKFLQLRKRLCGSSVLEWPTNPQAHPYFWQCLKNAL

[7] = target: human MyD88 (human) (UniProt Q99836)
[8] = target: TIRAP (UniProt P58753)
[9] = target: TRAM (UniProt Q86XR7)
[10] = target: T4, TLR6 TIR domain (UniProt Q9Y2C9)
T4 sequence: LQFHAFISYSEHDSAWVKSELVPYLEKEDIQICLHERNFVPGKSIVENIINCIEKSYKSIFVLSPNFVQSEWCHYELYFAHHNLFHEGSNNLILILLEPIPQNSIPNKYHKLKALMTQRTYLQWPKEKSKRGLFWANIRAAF

[11] = target: T5, TLR1 TIR domain (UniProt Q15399)
T5 sequence: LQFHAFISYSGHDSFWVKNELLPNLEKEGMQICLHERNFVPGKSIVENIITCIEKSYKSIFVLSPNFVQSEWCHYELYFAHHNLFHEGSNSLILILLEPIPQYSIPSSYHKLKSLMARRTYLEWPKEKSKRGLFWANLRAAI

[12] = target: TLR4 TIR domain (UniProt O00206)
[13] = target: T6, TLR8 TIR domain (UniProt Q9NR97)
T6 sequence: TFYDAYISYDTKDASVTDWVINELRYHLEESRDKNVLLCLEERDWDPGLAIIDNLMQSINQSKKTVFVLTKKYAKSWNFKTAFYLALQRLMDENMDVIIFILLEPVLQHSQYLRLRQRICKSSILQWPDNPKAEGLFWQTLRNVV

BtpB (B. melitensis 16 M, BMEI1216) (from UniProt Q8YGE3)
binding [1]: no binding
binding [2]: no binding
binding [3]: no binding
binding [4]: no binding
binding [5]: no binding
binding [6]: no binding
binding [7]: binds
binding [8]: no binding
binding [9]: no binding
binding [10]: no binding
binding [11]: no binding
binding [12]: no binding
binding [13]: no binding

— article PMC3703528
